No constants are given. Whether binding was seen depends on the method and setting. Some results given as binding are weak or reduced against the parent protein; the word gives no strength. Sequences can lack the tags named with a protein.
How the values were obtained:
[1] = molecular target: T1, mouse neuropilin-2(a0), myc-tagged, expressed in COS-7 cells (mouse) (UniProt O35375); test: AP fusion binding to transfected COS cells
T1 sequence: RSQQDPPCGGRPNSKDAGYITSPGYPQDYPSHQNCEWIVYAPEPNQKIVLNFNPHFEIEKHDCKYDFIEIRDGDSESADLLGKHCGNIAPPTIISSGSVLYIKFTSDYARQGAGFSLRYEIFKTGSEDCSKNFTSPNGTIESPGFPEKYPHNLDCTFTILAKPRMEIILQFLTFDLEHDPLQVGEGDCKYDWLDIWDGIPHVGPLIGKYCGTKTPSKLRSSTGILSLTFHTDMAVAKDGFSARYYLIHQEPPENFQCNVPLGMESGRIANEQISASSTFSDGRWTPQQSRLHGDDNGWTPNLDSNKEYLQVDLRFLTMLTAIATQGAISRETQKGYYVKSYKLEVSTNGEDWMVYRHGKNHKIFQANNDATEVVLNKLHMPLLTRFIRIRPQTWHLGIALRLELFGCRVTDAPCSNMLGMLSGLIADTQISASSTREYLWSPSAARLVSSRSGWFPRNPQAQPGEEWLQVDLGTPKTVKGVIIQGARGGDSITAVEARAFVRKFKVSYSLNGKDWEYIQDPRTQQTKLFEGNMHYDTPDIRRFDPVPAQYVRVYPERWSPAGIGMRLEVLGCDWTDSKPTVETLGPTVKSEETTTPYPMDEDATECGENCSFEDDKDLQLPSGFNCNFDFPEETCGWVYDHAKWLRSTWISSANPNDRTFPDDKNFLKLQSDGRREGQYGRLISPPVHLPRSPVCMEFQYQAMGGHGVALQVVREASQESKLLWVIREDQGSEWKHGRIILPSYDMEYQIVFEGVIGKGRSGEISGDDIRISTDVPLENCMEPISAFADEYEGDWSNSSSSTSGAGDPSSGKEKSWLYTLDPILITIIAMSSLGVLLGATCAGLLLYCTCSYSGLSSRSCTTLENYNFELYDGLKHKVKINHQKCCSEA

Chains of the proteins cited; added tags and fusions are not shown. Lines headed by an entry give the natural chain unless they say otherwise; changes in a name come on top.
UniProt O35375: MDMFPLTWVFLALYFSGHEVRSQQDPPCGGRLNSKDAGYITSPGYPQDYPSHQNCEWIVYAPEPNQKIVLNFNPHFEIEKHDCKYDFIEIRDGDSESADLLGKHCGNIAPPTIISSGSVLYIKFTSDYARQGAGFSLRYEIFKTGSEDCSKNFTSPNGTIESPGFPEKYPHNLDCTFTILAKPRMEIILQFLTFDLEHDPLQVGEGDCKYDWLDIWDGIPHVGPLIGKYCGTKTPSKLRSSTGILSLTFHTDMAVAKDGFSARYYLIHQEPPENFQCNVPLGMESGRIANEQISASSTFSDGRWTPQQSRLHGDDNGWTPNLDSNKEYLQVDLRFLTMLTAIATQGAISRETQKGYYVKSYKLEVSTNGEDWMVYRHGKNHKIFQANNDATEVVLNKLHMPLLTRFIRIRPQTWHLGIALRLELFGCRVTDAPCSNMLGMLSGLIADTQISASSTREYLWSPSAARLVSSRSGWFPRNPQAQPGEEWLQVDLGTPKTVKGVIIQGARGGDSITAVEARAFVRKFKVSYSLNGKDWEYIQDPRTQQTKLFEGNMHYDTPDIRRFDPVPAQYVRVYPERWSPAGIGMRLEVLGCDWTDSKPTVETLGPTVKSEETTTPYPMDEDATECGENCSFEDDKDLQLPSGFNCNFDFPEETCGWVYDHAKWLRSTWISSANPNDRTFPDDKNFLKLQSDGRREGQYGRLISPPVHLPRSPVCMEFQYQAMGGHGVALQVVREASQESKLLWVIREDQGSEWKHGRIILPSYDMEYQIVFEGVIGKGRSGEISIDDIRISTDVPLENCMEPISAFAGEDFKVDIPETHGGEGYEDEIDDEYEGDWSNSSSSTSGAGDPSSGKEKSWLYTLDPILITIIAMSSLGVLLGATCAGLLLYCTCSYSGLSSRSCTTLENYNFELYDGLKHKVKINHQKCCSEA

[2] = molecular target: T2, mouse neuropilin-2(b5), myc-tagged, expressed in COS-7 cells (mouse); test: AP fusion binding to transfected COS cells
T2 sequence: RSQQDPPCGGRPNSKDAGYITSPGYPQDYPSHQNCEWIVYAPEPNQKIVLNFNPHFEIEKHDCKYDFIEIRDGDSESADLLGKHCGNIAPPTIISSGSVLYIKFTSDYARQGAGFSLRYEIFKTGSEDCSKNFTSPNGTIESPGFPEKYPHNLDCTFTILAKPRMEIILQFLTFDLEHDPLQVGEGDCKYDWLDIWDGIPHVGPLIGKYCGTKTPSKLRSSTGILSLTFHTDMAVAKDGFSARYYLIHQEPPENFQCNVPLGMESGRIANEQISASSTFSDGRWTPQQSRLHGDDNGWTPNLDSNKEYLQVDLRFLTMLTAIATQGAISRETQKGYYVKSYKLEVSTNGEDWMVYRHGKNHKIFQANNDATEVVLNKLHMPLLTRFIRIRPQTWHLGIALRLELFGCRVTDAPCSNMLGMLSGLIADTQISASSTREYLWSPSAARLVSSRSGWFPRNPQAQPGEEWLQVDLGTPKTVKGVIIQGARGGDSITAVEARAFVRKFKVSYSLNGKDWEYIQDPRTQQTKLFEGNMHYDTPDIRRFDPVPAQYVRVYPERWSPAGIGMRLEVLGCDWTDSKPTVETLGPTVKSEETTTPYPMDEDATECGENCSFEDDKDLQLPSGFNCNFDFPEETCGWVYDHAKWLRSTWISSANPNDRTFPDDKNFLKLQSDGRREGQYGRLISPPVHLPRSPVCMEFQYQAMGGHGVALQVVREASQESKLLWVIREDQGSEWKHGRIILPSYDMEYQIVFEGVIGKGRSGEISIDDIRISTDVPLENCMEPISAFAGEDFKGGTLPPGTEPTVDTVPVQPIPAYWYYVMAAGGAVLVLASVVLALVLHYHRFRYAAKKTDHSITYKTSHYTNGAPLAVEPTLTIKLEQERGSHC

[3] = molecular target: T3, mouse neuropilin-2(a22), myc-tagged, expressed in COS-7 cells (mouse) (UniProt O35375); test: AP fusion binding to transfected COS cells
T3 sequence: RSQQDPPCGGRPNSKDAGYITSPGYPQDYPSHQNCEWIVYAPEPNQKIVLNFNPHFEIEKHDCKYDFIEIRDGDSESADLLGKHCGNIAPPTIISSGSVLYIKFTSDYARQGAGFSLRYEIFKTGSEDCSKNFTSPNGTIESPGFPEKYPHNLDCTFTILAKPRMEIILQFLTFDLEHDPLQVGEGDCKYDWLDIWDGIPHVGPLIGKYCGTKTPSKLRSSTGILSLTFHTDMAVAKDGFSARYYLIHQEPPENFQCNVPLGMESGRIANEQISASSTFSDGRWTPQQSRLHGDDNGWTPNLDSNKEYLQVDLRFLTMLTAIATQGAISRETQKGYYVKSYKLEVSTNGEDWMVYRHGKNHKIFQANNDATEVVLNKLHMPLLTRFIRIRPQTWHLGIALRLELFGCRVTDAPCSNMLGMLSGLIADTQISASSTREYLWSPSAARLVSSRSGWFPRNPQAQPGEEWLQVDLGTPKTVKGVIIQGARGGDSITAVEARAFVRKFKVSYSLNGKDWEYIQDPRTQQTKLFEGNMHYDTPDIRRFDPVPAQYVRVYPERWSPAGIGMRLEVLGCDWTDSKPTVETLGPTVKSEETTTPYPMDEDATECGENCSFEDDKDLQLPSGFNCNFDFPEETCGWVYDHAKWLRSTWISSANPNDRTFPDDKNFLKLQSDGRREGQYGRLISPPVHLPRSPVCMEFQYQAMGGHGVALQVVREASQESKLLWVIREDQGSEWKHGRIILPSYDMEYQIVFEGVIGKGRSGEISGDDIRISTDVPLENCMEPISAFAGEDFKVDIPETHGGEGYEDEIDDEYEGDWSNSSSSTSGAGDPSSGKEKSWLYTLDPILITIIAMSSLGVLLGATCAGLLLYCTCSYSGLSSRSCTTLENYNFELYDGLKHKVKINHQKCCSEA

[4] = molecular target: T4, mouse neuropilin-2(a5), myc-tagged, expressed in COS-7 cells (mouse) (UniProt O35375); test: AP fusion binding to transfected COS cells
T4 sequence: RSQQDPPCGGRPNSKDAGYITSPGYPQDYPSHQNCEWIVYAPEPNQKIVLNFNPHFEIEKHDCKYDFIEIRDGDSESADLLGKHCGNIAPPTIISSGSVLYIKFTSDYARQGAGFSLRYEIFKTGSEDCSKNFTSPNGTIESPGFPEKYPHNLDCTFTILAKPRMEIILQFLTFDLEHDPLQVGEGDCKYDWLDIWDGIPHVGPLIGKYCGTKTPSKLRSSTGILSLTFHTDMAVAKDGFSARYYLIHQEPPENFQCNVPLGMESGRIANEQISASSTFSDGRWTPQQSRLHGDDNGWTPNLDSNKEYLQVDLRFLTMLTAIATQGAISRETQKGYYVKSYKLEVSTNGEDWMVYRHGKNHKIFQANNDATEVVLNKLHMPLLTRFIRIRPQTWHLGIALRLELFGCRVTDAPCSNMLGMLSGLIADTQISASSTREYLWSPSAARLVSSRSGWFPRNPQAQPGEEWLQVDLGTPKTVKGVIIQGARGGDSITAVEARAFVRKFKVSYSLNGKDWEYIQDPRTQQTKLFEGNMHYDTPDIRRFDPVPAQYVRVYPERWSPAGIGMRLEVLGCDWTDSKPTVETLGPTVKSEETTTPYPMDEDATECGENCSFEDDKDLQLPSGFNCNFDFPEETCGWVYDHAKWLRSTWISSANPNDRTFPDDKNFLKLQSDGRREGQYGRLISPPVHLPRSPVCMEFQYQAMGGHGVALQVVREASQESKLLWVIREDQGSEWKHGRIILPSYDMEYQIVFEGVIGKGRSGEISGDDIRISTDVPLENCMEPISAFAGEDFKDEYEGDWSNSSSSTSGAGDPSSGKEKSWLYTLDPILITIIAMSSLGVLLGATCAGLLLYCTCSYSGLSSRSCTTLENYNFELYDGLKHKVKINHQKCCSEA

[5] = molecular target: T2, mouse neuropilin-2(b5), myc-tagged, expressed in COS-7 cells (mouse); test: equilibrium binding of AP fusion to transfected COS cells (b5 isoform)

Measured: binding

B1: Sema IV-AP fusion protein (human Sema IV fused to alkaline phosphatase) (ligand, UniProt Q13275 19-785, looked up)
chain: SFPTQDHLPATPRVRLSFKELKATGTAHFFNFLLNTTDYRILLKDEDHDRMYVGSKDYVLSLDLHDINREPLIIHWAASPQRIEECVLSGKDVNGECGNFVRLIQPWNRTHLYVCGTGAYNPMCTYVNRGRRAQATPWTQTQAVRGRGSRATDGALRPMPTAPRQDYIFYLEPERLESGKGKCPYDPKLDTASALINEELYAGVYIDFMGTDAAIFRTLGKQTAMRTDQYNSRWLNDPSFIHAELIPDSAERNDDKLYFFFRERSAEAPQSPAVYARIGRICLNDDGGHCCLVNKWSTFLKARLVCSVPGEDGIETHFDELQDVFVQQTQDVRNPVIYAVFTSSGSVFRGSAVCVYSMADIRMVFNGPFAHKEGPNYQWMPFSGKMPYPRPGTCPGGTFTPSMKSTKDYPDEVINFMRSHPLMYQAVYPLQRRPLVVRTGAPYRLTTIAVDQVDAADGRYEVLFLGTDRGTVQKVIVLPKDDQELEELMLEEVEVFKDPAPVKTMTISSKRQQLYVASAVGVTHLSLHRCQAYGAACADCCLARDPYCAWDGQACSRYTASSKRRSRRQDVRHGNPIRQCRGFNSNANKNAVESVQYGVAGSAAFLECQPRSPQATVKWLFQRDPGDRRREIRAEDRFLRTEQGLLLRALQLSDRGLYSCTATENNFKHVVTRVQLHVLGRDAVHAALFPPLSMSAPPPPGAGPPTPPYQELAQLLAQPEVGLIHQYCQGYWRHVPPSPREAPGAPRSPEPQDQKKPRNRRHHPPDT
notes: written as in the name; Partially purified conditioned medium; also called Sema IV/Sema 3F; not shown: secreted alkaline phosphatase in pSecTag-A
binds: [1] | [2] | [3] | [4] | [5]
